PubChem BioAssay AID1508597 | Cure First | 2020

- Assay: 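Knock-downs altering ovarian cancer cell survival with or without PARP inhibitor rucaparib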 (primary screen)
- Cell system: human ovarian carcinoma lines grown from tumours: OCI-P5x (papillary serous) and OCI-C5x (clear cell)
- Reagents: siRNA pool against human genes, 1.25 pmol siRNA per well
- Time to read-out: 72 h or 96 h, depending on the cell culture
- Challenge: rucaparib 20 µM (about IC30) or vehicle, present until read-out
- Detection: 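Luminescent ATP-based viability assay read 72 or 96 h after transfection, depending on culture, given as normalised percent viability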
- Reading the numbers: viability, normalised: higher = more viable cells remaining
- Rule for the call: 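Active when normalised viability falls below 80 percent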
- Meaning of the calls: active = viability under 80%; inactive = viability 80% or more
In all, the deposit lists about 2,100 reagents; this is an unselected part. 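Calls flag viability under 80% in either arm, not effects specific to rucaparib; the reference for percent is not stated.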 Not stated in the record: the 100% reference.

WDR45B (WD repeat domain 45B), rucaparib or vehicle Rucaparib, cell line OCI-C5x (clear cell), technical replicate 1
- viability, normalised (%): 63.3
- activity call: active

WDR45B (WD repeat domain 45B), rucaparib or vehicle Rucaparib, cell line OCI-C5x (clear cell), technical replicate 2
- viability, normalised (%): 76.3
- activity call: active

WDR45B (WD repeat domain 45B), rucaparib or vehicle Rucaparib, cell line OCI-C5x (clear cell), technical replicate 3
- viability, normalised (%): 46.7
- activity call: active

WDR45B (WD repeat domain 45B), rucaparib or vehicle Rucaparib, cell line OCI-P5x (serous), technical replicate 1
- viability, normalised (%): 80.7
- activity call: inactive

WDR45B (WD repeat domain 45B), rucaparib or vehicle Rucaparib, cell line OCI-P5x (serous), technical replicate 2
- viability, normalised (%): 81.9
- activity call: inactive

WDR45B (WD repeat domain 45B), rucaparib or vehicle Rucaparib, cell line OCI-P5x (serous), technical replicate 3
- viability, normalised (%): 73.9
- activity call: active

WDR45B (WD repeat domain 45B), rucaparib or vehicle Vehicle, cell line OCI-C5x (clear cell), technical replicate 1
- viability, normalised (%): 68.3
- activity call: active

WDR45B (WD repeat domain 45B), rucaparib or vehicle Vehicle, cell line OCI-C5x (clear cell), technical replicate 2
- viability, normalised (%): 54.9
- activity call: active

WDR45B (WD repeat domain 45B), rucaparib or vehicle Vehicle, cell line OCI-C5x (clear cell), technical replicate 3
- viability, normalised (%): 57
- activity call: active

WDR45B (WD repeat domain 45B), rucaparib or vehicle Vehicle, cell line OCI-P5x (serous), technical replicate 1
- viability, normalised (%): 76.3
- activity call: active

WDR45B (WD repeat domain 45B), rucaparib or vehicle Vehicle, cell line OCI-P5x (serous), technical replicate 2
- viability, normalised (%): 82.2
- activity call: inactive

WDR45B (WD repeat domain 45B), rucaparib or vehicle Vehicle, cell line OCI-P5x (serous), technical replicate 3
- viability, normalised (%): 72.2
- activity call: active

CDX4 (caudal type homeobox 4), rucaparib or vehicle Rucaparib, cell line OCI-C5x (clear cell), technical replicate 1
- viability, normalised (%): 85
- activity call: inactive

CDX4 (caudal type homeobox 4), rucaparib or vehicle Rucaparib, cell line OCI-C5x (clear cell), technical replicate 2
- viability, normalised (%): 97
- activity call: inactive

CDX4 (caudal type homeobox 4), rucaparib or vehicle Rucaparib, cell line OCI-C5x (clear cell), technical replicate 3
- viability, normalised (%): 104
- activity call: inactive

CDX4 (caudal type homeobox 4), rucaparib or vehicle Rucaparib, cell line OCI-P5x (serous), technical replicate 1
- viability, normalised (%): 65.9
- activity call: active

CDX4 (caudal type homeobox 4), rucaparib or vehicle Rucaparib, cell line OCI-P5x (serous), technical replicate 2
- viability, normalised (%): 68
- activity call: active

CDX4 (caudal type homeobox 4), rucaparib or vehicle Rucaparib, cell line OCI-P5x (serous), technical replicate 3
- viability, normalised (%): 55.7
- activity call: active

CDX4 (caudal type homeobox 4), rucaparib or vehicle Vehicle, cell line OCI-C5x (clear cell), technical replicate 1
- viability, normalised (%): 88.4
- activity call: inactive

CDX4 (caudal type homeobox 4), rucaparib or vehicle Vehicle, cell line OCI-C5x (clear cell), technical replicate 2
- viability, normalised (%): 89.9
- activity call: inactive

CDX4 (caudal type homeobox 4), rucaparib or vehicle Vehicle, cell line OCI-C5x (clear cell), technical replicate 3
- viability, normalised (%): 73.1
- activity call: active

CDX4 (caudal type homeobox 4), rucaparib or vehicle Vehicle, cell line OCI-P5x (serous), technical replicate 1
- viability, normalised (%): 83.7
- activity call: inactive

CDX4 (caudal type homeobox 4), rucaparib or vehicle Vehicle, cell line OCI-P5x (serous), technical replicate 2
- viability, normalised (%): 67.6
- activity call: active

CDX4 (caudal type homeobox 4), rucaparib or vehicle Vehicle, cell line OCI-P5x (serous), technical replicate 3
- viability, normalised (%): 88.9
- activity call: inactive

2 consecutive entries from above:
CDX4 (caudal type homeobox 4), rucaparib or vehicle Rucaparib, cell line OCI-C5x (clear cell), technical replicate 2
- viability, normalised (%): 97
- activity call: inactive

CDX4 (caudal type homeobox 4), rucaparib or vehicle Rucaparib, cell line OCI-C5x (clear cell), technical replicate 3
- viability, normalised (%): 104
- activity call: inactive
